Reference: PubChem BioAssay AID493014 (National Center for Advancing Translational Sciences (NCATS), 2011)
In all, about 340,000 compounds went through this assay and about 170 (0.05%) were called active. Inconclusive results, whose numbers are uncertain, are shown with a selection of clear calls. Calls come from the whole dose curve; as a rule, active = well fitted inhibition curve with a large enough effect in the signal ratio, with a control signal flat (not every such curve was filed as active); inconclusive = small, poorly fitted or top-dose-only effect, or effect the other way, or a change in a side signal; inactive = flat fitted curve, though single readings scatter; the % refers to the signal ratio. Potencies of inconclusive entries are doubtful fits and often do not repeat.

Experiment: qHTS Assay to Find Inhibitors of Chronic Active B-Cell Receptor Signaling;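 for activity change, negative = inhibition: plate controls were basal doxycycline-induced cells for no effect and cells given 10 µM MG132 for full effect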
Settings: ABC-DLBCL IkBa-CBG/CBR reporter, luminescence ratio (green luciferase fused to IkBa over red control in TMD8 lymphoma cells), 4 h; activity change, negative = inhibition: at 46.1 µM (top of the series)
Summary of the method: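 TMD8 human ABC-DLBCL cells with doxycycline-inducible IκBα–green luciferase fusion and unfused red luciferase, in 0.5% FBS medium; compounds up to 46 uM, 4 h at 37C. Green/red luminescence ratio, filter-overlap corrected, fitted to concentration-response curves.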
Potency is the fitted concentration of half-maximal effect.

| SMILES | activity change, negative = inhibition | Potency |
| --- | --- | --- |
| O=c1ccc2c(o1)/C(=C/C=C(Cl)Cl)CCC2 | inconclusive: -0.402% | – |
| CC(C)CN1CCC(CNC(=O)CCc2nnc(Cc3c[nH]c4ccccc34)o2)CC1 | – | inconclusive: 35.5 µM [falling, single point] |
| CC(c1ccccc1)C1OCC(C[N+]2(C)CCCCC2)O1 (stereo not given) | – | inconclusive: 0.631 µM [falling, partial curve, poor fit] |
| Cc1ccc(S(=O)(=O)/N=C2\C(=O)c3ccccc3C([O-])=C2n2cc[n+](CCC(C)C)c2)cc1 | inconclusive: 1.62% | – |
| COC(=O)c1ccc(OCCN2C3=NCCN3c3ccccc32)cc1 | – | inconclusive: 29.1 µM [falling, single point] |
| COc1cc(C(=O)NC(=S)NNC(=O)[C@H]2C[C@@H]2c2ccccc2)cc(OC)c1OC | inactive: -0.21% | – |
| COc1ccc(C(C)(C)C)cc1NS(=O)(=O)c1cccc2cccnc12 | inactive: -0.879% | – |
| CCCCOC(=O)Nc1cc(C)c(Cl)cc1OC | inconclusive: 15.9% | – |
| COc1ccc(Oc2c(Cl)cnn(-c3ccc(Cl)c(Cl)c3)c2=O)cc1 | inactive: 5.24% | – |
| Cc1nn(C)c(C(=O)Nc2ccc(Br)cc2F)c1Br | inconclusive: 4.87% | – |
| O=C(O)c1cc(=O)cc(C(=O)O)[nH]1 | inactive: 12.7% | – |
| N#C/C(=C\c1cccc([N+](=O)[O-])c1)c1nnc2n1CCCCC2 | inconclusive: -9.77% | – |
| Clc1ccc(-n2c(SC/C=C/c3ccccc3)nnc2-c2cccnc2)cc1 | inactive: 17.8% | – |
| N#Cc1c(-c2ccc(F)cc2)noc1N | inconclusive: -26.5% | – |
| O=S(=O)(c1cccc2nonc12)N1CCN(c2ccc(F)cc2)CC1 | – | inconclusive: 7.08 µM [rising, partial curve] |
| CCOc1cc(S(=O)(=O)n2ccnc2C(C)C)ccc1Cl | inconclusive: 14.8% | – |
| Cc1nnc2sc(-c3cccc4ccccc34)nn12 | inconclusive: -0.334% | – |
| O=C(C[n+]1ccc(Cc2ccccc2)cc1)Nc1ccc([N+](=O)[O-])cc1Cl | inactive: -0.581% | – |
| Cc1cc(C)cc(OCC(=O)Nc2cccc(C(=O)O)c2)c1 | – | inconclusive: 4.61 µM [falling, partial curve] |
| CCc1cc2c(=O)c(-c3nc4ccccc4[nH]3)coc2c(CN2CCCCC2)c1O | – | inconclusive: 5.62 µM [falling, single point] |
| CN(CC(=O)Nc1ccc(Cl)c(Cl)c1)C(=O)C12CC3CC(CC(C3)C1)C2 | inactive: 3.98% | – |
| COc1ccc(CC(=O)Nc2ccc3c(c2)CCC3)cc1OC | – | inconclusive: 23.1 µM [rising, single point] |
| COc1ccc(C(C(=O)NC2CCCCC2)N(C(=O)CCl)c2cccc(Cl)c2)cc1 (stereo not given) | inconclusive: -0.138% | – |
| Cc1ccc(C(=O)C[n+]2ccc3ccccc3c2)cc1 | inconclusive: 18.3% | – |
| O=C(Nc1cccc(O)c1)c1cccc(C(=O)Nc2cccc(O)c2)c1 | inconclusive: -20.5% | – |
| O=C1C=CC(O)(c2cc(=O)c3c(O)cc(O)cc3o2)C=C1 | inconclusive: 8.16% | – |
| O=C(CSc1nnnn1Cc1ccccc1)NCCc1ccccc1 | inconclusive: 8.36% | – |

| SMILES | activity change, negative = inhibition | Potency |
| --- | --- | --- |
| CCCCN([C@H](CO)C(C)C)S(=O)(=O)c1ccccc1Br | inconclusive: 0.813% | – |
| Cc1cc(C)c(NC(=S)N(CCN(C)C)Cc2cccs2)c(C)c1 | inconclusive: -11.3% | – |
| CCc1c(C)n([O-])c2c([n+]1=O)CCC2 | inconclusive: 8.64% | – |
| Cc1occc1C(=O)NNC(=O)Nc1ccc([N+](=O)[O-])cc1 | – | inconclusive: 35.5 µM [falling, single point] |
| O=C(Nc1ccc(-c2csc(Nc3cccc(C(F)(F)F)c3)n2)cc1)c1ccccc1 | inactive: 1.61% | – |
| Cc1cc(C(=O)N/N=C/c2ccc(C)s2)n[nH]1 | – | inconclusive: 35.5 µM [falling, single point] |
| CC(=O)Nc1ccc(C(=O)CSc2nc3ccccc3n2CC(=O)N2CCCC2)cc1 | inconclusive: 3.37% | – |
| COCCCNC(=O)CN1C(=O)CSc2ncccc21 | – | inconclusive: 6.51 µM [rising, partial curve, poor fit] |
| CCN(CC(=O)NCc1ccc(Cl)cc1)C(=O)C(C)Sc1ccccc1 (stereo not given) | inconclusive: -3.27% | – |
| CNc1ccc(Br)cc(C(=O)/C=C/c2ccc3c(c2)OCO3)c1=O | – | inconclusive: 15.8 µM [falling, partial curve] |
| Cn1c(-c2ccc(CN3CCCCC3)o2)nc2ccccc21 | inactive: 6.67% | – |
| O=c1c2ccccc2nc2ccc(NCc3ccco3)nn12 | inconclusive: -11% | – |
| O=C1OCC(c2ccccc2)=C1c1ccccc1 | inactive: 1.1% | – |
| Cc1c(C(=O)NCc2ccc3c(c2)OCO3)oc2ccc(Br)cc12 | – | inconclusive: 2.06 µM [rising, full curve, poor fit] |
| COCCN(C(=O)COC(=O)C1CC1C)c1c(N)n(Cc2ccccc2)c(=O)[nH]c1=O (stereo not given) | inactive: 4.46% | – |
| CCOC(=O)c1c(S(=O)(=O)N2CCCC(C(=O)N3CCN(c4cccc(C)c4C)CC3)C2)c(C)n(C)c1C (stereo not given) | – | inconclusive: 10 µM [falling, partial curve, poor fit] |
| c1ccc(-c2nc(N3CCCCC3)nc3ccccc23)cc1 | inconclusive: 7.85% | – |
| c1ccc(CSc2nnc(-c3c[nH]c4ccccc34)o2)cc1 | inconclusive: -16.9% | – |
| S=c1[nH]nc(CNc2ccc(Cl)cc2)n1Cc1ccccc1 | – | inconclusive: 35.5 µM [falling, single point] |
| OC(CN1CCCCC1)Cn1c2ccc(Cl)cc2c2cc(Cl)ccc21 (stereo not given) | inconclusive: 256% | – |
| CCc1ccc2[nH]c(=O)c(CN(CCCN3CCOCC3)C(=O)Nc3ccc(Cl)cc3)cc2c1 | inconclusive: 3.01% | – |
| O=C(c1ccco1)[C@@H]1[C@@H]2C(=O)N(c3ccc(F)cc3)C(=O)[C@@H]2[C@H]2C=Cc3ccccc3N21 | – | inconclusive: 29.1 µM [falling, partial curve, poor fit] |
| Cc1cccc(C(c2sc3nc(-c4ccco4)nn3c2O)N2CCN(c3ccccc3)CC2)c1 (stereo not given) | inactive: -0.937% | – |
| NC(=O)C1CCN(C2=C(NS(=O)(=O)c3ccc(Br)cc3)C(=O)c3ccccc3C2=O)CC1 | inactive: 23.3% | – |
| Cc1nnc(-c2cccc(Br)c2)c2cn(-c3ccccc3)nc12 | inconclusive: -2.27% | – |
| O=C(NC(Cc1ccccc1)c1nc2ccccc2[nH]1)c1ccc(Cl)c([N+](=O)[O-])c1 (stereo not given) | – | inconclusive: 18.4 µM [rising, single point] |
| O=C(C1CCCN(c2ncnc3c2nc2n3CCCCC2)C1)N1CCN(c2cccc(Cl)c2)CC1 (stereo not given) | inconclusive: 0.177% | – |

In the list so far, 2 contain a cyano group:

| SMILES | activity change, negative = inhibition | Potency |
| --- | --- | --- |
| N#C/C(=C\c1cccc([N+](=O)[O-])c1)c1nnc2n1CCCCC2 | inconclusive: -9.77% | – |
| N#Cc1c(-c2ccc(F)cc2)noc1N | inconclusive: -26.5% | – |

(continued)

| SMILES | activity change, negative = inhibition | Potency |
| --- | --- | --- |
| COc1ccc(-c2cc(C(=O)N3CCCCCC3)no2)cc1OC | inconclusive: -0.829% | – |
| COc1ccc2cc(C(N)=O)c(=Nc3ccc(C)cc3)oc2c1 | inactive: -7.6% | – |
| COc1ccc(C[C@H]2CN3C(=NC[C@@H]3Cc3ccc(O)cc3)N2CCNC(=O)c2ccc(C)c(Br)c2)cc1 | inconclusive: 3.22% | – |
| COCc1cc(=O)n2c(-c3ccccc3OC)n[nH]c2n1 | – | inconclusive: 11.2 µM [falling, partial curve] |
| Cc1ccc(NC(=O)c2ccc(=O)n(CC(=O)Nc3cccc(C)c3)n2)cc1 | inconclusive: -17.9% | – |
| C/C(=N\NC(=O)c1cc(-c2ccncc2)nc2ccccc12)c1ccc(OC(F)F)cc1 | – | inconclusive: 22.4 µM [falling, single point] |
| COC(=O)/C(=C\c1c[nH]c2ccccc12)NC(C)=O | inconclusive: 7.63% | – |
| Cn1cc(CNC(=O)c2sc3cccc(Cl)c3c2Cl)cn1 | inconclusive: -26.6% | – |
| COc1cccc(NC(=O)c2ccc(NS(=O)(=O)c3cccs3)cc2)c1 | – | inconclusive: 13 µM [falling, partial curve, poor fit] |
| COc1ccc(C(=O)Nc2cc(OC)ccc2OC)cc1 | inconclusive: -0.343% | – |
| CC(Sc1ccc(Cl)cc1)C(=O)NNC(=O)c1ccccc1O (stereo not given) | – | inconclusive: 28.2 µM [falling, single point] |
| O=C(N/N=C/C=C/c1ccccc1)c1cccc(Br)c1 | – | inconclusive: 20 µM [falling, partial curve] |
| Cc1ccc(NC(=O)Cc2ccsc2)cc1S(=O)(=O)N1CCOCC1 | inconclusive: -0.562% | – |
| CCCC(=O)Nc1ccc(Nc2ccccc2)cc1 | inactive: 0.26% | – |
| CCc1ccc(C(=O)NNc2cc(Cl)ccc2Cl)cc1 | – | inconclusive: 14.1 µM [falling, partial curve, poor fit] |
| CC1CC(=O)N(c2ccc(NCc3ccccc3Cl)c([N+](=O)[O-])c2)C1=O (stereo not given) | inactive: -0.333% | – |
| O=C(c1ccc(F)cc1)c1cn(Cc2ccc(F)cc2)c2cc3c(cc2c1=O)OCCO3 | inconclusive: 1.75% | – |
| O=C1CN(C(=O)CN2CCCC2)C(c2ccccc2)c2cc(Br)ccc2N1 (stereo not given) | inconclusive: 17.5% | – |
| Cc1ccc(C)c(SCC(=O)NCc2ccco2)c1 | inactive: 12.8% | – |
| CCCOc1cccc(NC(=O)c2cc(C)oc2C)c1 | inconclusive: 0.708% | – |
| C=CCCC(=O)Nc1nc(C)c(-c2csc(Nc3cccc(OC)c3)n2)s1 | inconclusive: -0.355% | – |
| COC(=O)c1scc(C)c1N1C(=O)c2ccccc2C1=O | inconclusive: -1.01% | – |
| Cc1ccc(OCc2nnc(SCC(=O)c3ccccc3)n2-c2ccccc2)cc1 | inactive: -3.06% | – |
| CCOC(=O)Cc1csc(NC(=O)c2ccc3ncsc3c2)n1 | – | inconclusive: 31.6 µM [falling, partial curve] |
| COc1ccccc1C(=O)Nc1nc(-c2ccc(S(=O)(=O)N3CCOCC3)cc2)cs1 | – | inconclusive: 8.2 µM [falling, partial curve] |
| COc1ccc(N2CCN(Cc3nc4c(c(=O)n(C)c(=O)n4C)n3CCc3ccccc3)CC2)cc1 | inconclusive: 16.5% | – |

15 of these compounds, set out differently.
SMILES	activity change, negative = inhibition	Potency
COc1ccc(Oc2c(Cl)cnn(-c3ccc(Cl)c(Cl)c3)c2=O)cc1	inactive: 5.24%	–
Cc1nn(C)c(C(=O)Nc2ccc(Br)cc2F)c1Br	inconclusive: 4.87%	–
O=C(O)c1cc(=O)cc(C(=O)O)[nH]1	inactive: 12.7%	–
Clc1ccc(-n2c(SC/C=C/c3ccccc3)nnc2-c2cccnc2)cc1	inactive: 17.8%	–
Cc1nnc2sc(-c3cccc4ccccc34)nn12	inconclusive: -0.334%	–
O=C(CSc1nnnn1Cc1ccccc1)NCCc1ccccc1	inconclusive: 8.36%	–
CCc1c(C)n([O-])c2c([n+]1=O)CCC2	inconclusive: 8.64%	–
CC(=O)Nc1ccc(C(=O)CSc2nc3ccccc3n2CC(=O)N2CCCC2)cc1	inconclusive: 3.37%	–
O=C1OCC(c2ccccc2)=C1c1ccccc1	inactive: 1.1%	–
CCc1ccc2[nH]c(=O)c(CN(CCCN3CCOCC3)C(=O)Nc3ccc(Cl)cc3)cc2c1	inconclusive: 3.01%	–
COc1ccc2cc(C(N)=O)c(=Nc3ccc(C)cc3)oc2c1	inactive: -7.6%	–
COc1ccc(C[C@H]2CN3C(=NC[C@@H]3Cc3ccc(O)cc3)N2CCNC(=O)c2ccc(C)c(Br)c2)cc1	inconclusive: 3.22%	–
O=C(c1ccc(F)cc1)c1cn(Cc2ccc(F)cc2)c2cc3c(cc2c1=O)OCCO3	inconclusive: 1.75%	–
O=C1CN(C(=O)CN2CCCC2)C(c2ccccc2)c2cc(Br)ccc2N1 (stereo not given)	inconclusive: 17.5%	–
C=CCCC(=O)Nc1nc(C)c(-c2csc(Nc3cccc(OC)c3)n2)s1	inconclusive: -0.355%	–
